In publication PMC9613470, “Diverse MarR bacterial regulators of auxin catabolism in the plant microbiome” (Nature Microbiology, 2022):
For at least one entry, the source does not settle the construct or the ends of the probe. Negatives hold for the conditions tested. At least one verdict was read from the data and is not stated in words by the source. Where a protein sequence is shown, tags need not be part of it.

Target: T1, MarR_73 wild type (Variovorax paradoxus CL14) (UniProt C5CSP2)
T1 sequence (looked up, limits assumed): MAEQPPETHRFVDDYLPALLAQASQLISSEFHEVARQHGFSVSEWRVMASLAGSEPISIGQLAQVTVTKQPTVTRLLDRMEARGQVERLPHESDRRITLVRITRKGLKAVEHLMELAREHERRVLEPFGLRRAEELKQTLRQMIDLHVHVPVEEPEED
Test: ITC
Conditions: wild type did not bind any of the DNA oligos examined, possibly retains ligand from expression, 20 mM HEPES pH 7.4, 300 mM NaCl, 25 C, 25 uM duplex in cell, 0.5 mM protein in syringe, errors are s.e.m. of two runs, recombinant protein

Sequence: AATTCATGATTGTGGATACATTCA (double strand) [24 bp duplex]
- binding result: no binding
